Experimental data from publication doi:10.1101/2023.10.26.562393.
These are yes or no findings as the source states them, for the method shown. Binding seen in cells or lysates may run through a third protein. Here binding means that the protein was enriched with, or labelled near, the bait; the list need not be complete. Each block holds one molecule with its values, some of them ahead of it.

By UniProt entry, the sequences of proteins in these tests, tags left out.
UniProt Q9UQ84: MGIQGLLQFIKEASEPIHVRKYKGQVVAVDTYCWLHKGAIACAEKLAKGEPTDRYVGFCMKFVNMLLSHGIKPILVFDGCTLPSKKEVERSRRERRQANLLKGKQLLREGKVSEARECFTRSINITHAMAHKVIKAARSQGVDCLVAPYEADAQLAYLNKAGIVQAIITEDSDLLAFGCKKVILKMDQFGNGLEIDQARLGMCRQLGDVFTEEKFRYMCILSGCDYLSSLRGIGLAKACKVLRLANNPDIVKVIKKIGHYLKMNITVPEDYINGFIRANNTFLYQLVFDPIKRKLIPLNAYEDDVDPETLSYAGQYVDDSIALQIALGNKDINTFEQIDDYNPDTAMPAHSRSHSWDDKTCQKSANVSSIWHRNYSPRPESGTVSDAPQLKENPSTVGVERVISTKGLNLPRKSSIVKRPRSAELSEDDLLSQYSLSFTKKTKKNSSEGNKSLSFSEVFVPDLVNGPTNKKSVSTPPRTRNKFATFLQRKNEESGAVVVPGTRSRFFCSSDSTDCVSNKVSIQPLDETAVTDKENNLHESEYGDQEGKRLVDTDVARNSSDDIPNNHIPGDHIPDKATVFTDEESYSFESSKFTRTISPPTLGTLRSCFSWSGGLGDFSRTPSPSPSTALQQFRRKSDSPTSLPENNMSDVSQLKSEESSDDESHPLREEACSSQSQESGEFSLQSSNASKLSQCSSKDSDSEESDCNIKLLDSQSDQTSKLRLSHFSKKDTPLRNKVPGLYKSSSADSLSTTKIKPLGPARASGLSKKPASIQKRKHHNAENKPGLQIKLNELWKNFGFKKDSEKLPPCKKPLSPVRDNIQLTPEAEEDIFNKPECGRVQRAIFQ

Columns and labels:
TurboID-cyclin F = target: T1, TurboID-cyclin F (UniProt P41002); experiment: proximity labelling
T1 sequence: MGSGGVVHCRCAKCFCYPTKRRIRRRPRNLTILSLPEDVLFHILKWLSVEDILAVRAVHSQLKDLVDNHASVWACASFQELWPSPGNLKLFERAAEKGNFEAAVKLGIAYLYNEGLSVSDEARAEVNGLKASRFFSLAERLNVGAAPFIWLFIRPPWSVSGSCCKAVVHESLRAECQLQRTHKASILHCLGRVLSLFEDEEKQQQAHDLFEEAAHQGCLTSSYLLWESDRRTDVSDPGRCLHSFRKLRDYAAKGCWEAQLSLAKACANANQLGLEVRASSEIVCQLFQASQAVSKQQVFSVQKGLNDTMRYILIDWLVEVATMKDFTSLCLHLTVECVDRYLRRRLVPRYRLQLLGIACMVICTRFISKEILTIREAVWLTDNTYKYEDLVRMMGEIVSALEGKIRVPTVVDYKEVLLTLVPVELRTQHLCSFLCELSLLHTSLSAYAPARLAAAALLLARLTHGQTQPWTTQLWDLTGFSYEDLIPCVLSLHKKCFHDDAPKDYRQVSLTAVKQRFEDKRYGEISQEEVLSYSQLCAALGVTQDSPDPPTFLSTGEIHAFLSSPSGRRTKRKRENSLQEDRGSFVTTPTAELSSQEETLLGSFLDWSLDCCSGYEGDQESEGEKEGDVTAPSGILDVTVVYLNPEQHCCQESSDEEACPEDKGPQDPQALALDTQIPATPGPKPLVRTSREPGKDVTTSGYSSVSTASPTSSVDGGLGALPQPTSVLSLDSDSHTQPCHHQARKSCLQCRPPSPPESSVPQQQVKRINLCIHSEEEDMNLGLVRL

GFP-EXO1 WT = GFP-EXO1 WT (UniProt Q9UQ84); experiment: affinity purification with mass spectrometry

binding (TurboID-cyclin F): binds
Molecule: endogenous EXO1 (Flp-In T-REx HEK293) (from UniProt Q9UQ84 1-846)

binding (GFP-EXO1 WT): binds
B1: endogenous cyclin F (HEK293T) (protein, UniProt P41002 1-786)
chain: T1 sequence
